Measurements from PubChem BioAssay AID504467 (National Center for Advancing Translational Sciences (NCATS), 2011).
Out of some 330,000 compounds screened, about 7,700 (2.3%) were called active. The inconclusive results got no clear call from the source; some entries with a clear call stand among them for comparison. The call rests on the fitted dose curve; in most records, active means well fitted inhibition curve with a large enough effect; inconclusive means small, poorly fitted or top-dose-only effect, or effect the other way; inactive means flat fitted curve, though single readings scatter. Where the call is inconclusive, the potency comes from a doubtful curve fit.

test: qHTS screen for small molecules that inhibit ELG1-dependent DNA repair in human embryonic kidney (HEK293T) cells expressing luciferase-tagged ELG1; settings: HEK293T ELG1-luciferase reporter, luminescence, 16 h, DNA damage induced by 5-fluorouridine; series mostly up to 46.1 µM; further: nearly all actives have a fitted effect of over 55% in size
How it was run: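 DMSO vehicle served as the neutral condition. Each well held 2,000 cells given 5-fluorouridine plus compound; after 16 hr at 37 °C/5% CO2, ONE-Glo was added and luciferase measured 30 min later.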
Potency means the concentration at half of the fitted maximal effect.

| Structure (SMILES) | Potency |
| --- | --- |
| COc1ccc(NC(=O)CN(C)C(=O)c2cn(-c3ccccc3)nc2-c2ccc(F)cc2)cc1 | inconclusive: 29.1 µM [inhibitor, single point] |
| CC(C)c1ccc(NC(=O)Cn2c(=O)oc3ccccc32)cc1 | inconclusive: 29.1 µM [inhibitor, single point] |
| CCOc1ccc(N(CC(=O)N2CCN(c3ccccc3F)CC2)S(=O)(=O)c2c(C)noc2C)cc1 | inactive |
| CCCn1c(SCC(=O)NCC(=O)Nc2ccc(F)c(F)c2F)nc2ccccc2c1=O | inconclusive: 10.3 µM [inhibitor, partial curve] |
| CC(=O)Nc1ccc(S(=O)(=O)N2CCC(NC(=O)C(Cc3ccccc3F)NC(C)=O)CC2)cc1 (stereo unspecified) | inactive |
| CC1CCN(C(=O)COc2ccccc2F)CC1 | inconclusive: 18.4 µM [activator, single point] |
| Cc1cc(C(=O)N/N=C/c2ccc[nH]2)n[nH]1 | inconclusive: 20.6 µM [activator, partial curve] |
| S=c1[nH]c(-c2ccccc2)cn1/N=C/c1ccccc1Br | inactive |
| Cc1cc(C)nc(NC(=O)c2cc(-c3ccc4c(c3)OCO4)nc3ccccc23)c1 | active: 18.3 µM |
| COc1cccc(C(=O)Nc2ccccc2)c1 | inconclusive: 4.61 µM [activator, single point] |
| CCNS(=O)(=O)c1ccc(NS(=O)(=O)c2cc(C)ccc2C)cc1 | inactive |
| CCOC(=O)c1sc2cccc(F)c2c1N | inconclusive: 32.6 µM [activator, partial curve, poor fit] |
| C=CCNc1nc(Cl)nc(NC2CCCCC2)n1 | inconclusive: 23.1 µM [activator, partial curve, poor fit] |
| CC(C)CN1C2CCCC1CC(NC(=O)c1ccc([N+](=O)[O-])cc1)C2 (stereo unspecified) | inactive |
| Cc1cc(C2C(=O)CC(=O)CC2c2ccccc2)on1 (stereo unspecified) | inactive |
| O=S(=O)(NCC(O)c1ccccc1)c1ccc(-c2ccccn2)s1 (stereo unspecified) | inconclusive: 18.3 µM [inhibitor, partial curve] |
| O=C(Nc1ccc(C(F)(F)F)cc1)c1csc(-c2ccncc2)n1 | inconclusive: 29.1 µM [inhibitor, single point] |
| Cc1cc2c(cc1S(=O)(=O)N1CCN(c3ccccc3)CC1)OCCN2C | inactive |
| CCN(CC)C(=O)[C@H]1CC(CC(=O)NCCCOC)C(=O)N2CCc3c([nH]c4ccccc34)[C@]12C (stereo partly specified) | inactive |
| Cc1ccc(-c2nnc(-c3ccccc3Br)o2)cc1 | inconclusive: 0.447 µM [activator, full curve, poor fit] |
| O=C(NNC(=O)c1cc(Cl)ccc1O)c1ccc(NS(=O)(=O)c2cccs2)cc1 | inactive |
| O=C(NNC(=S)NC1CCCCC1)c1ccc(Cl)s1 | inactive |
| COc1ccc(C2=Nn3c([n+](C)c4ccccc43)SC2)cc1 | inconclusive: 1.83 µM [inhibitor, partial curve, poor fit] |

Structural class, the entries above with an NH in an aromatic ring (three)

| Structure (SMILES) | Potency |
| --- | --- |
| Cc1cc(C(=O)N/N=C/c2ccc[nH]2)n[nH]1 | inconclusive: 20.6 µM [activator, partial curve] |
| S=c1[nH]c(-c2ccccc2)cn1/N=C/c1ccccc1Br | inactive |
| CCN(CC)C(=O)[C@H]1CC(CC(=O)NCCCOC)C(=O)N2CCc3c([nH]c4ccccc34)[C@]12C (stereo partly specified) | inactive |

Further entries.

| Structure (SMILES) | Potency |
| --- | --- |
| CCOc1cc(C(=O)N2CCN(c3ccccc3)CC2)cc(OCC)c1OCC | inconclusive: 1.46 µM [inhibitor, partial curve, poor fit] |
| COc1cc(OC)cc(C(=O)Nc2ccc(Cn3ccnc3)cc2)c1 | inconclusive: 7.3 µM [inhibitor, partial curve] |
| CC(C#N)(NC(=O)COC(=O)c1ccccc1NCCO)C1CC1 (stereo unspecified) | inconclusive: 20.6 µM [activator, single point] |
| Cc1sc2ncnc(Oc3ccc(-n4ccnc4)cc3)c2c1C | inconclusive: 29.1 µM [inhibitor, partial curve, poor fit] |
| Cc1c(NC(=O)Nc2ccccc2Cl)sc(=S)n1C | inconclusive: 1.16 µM [inhibitor, full curve, poor fit] |
| O=C(Nc1ccc(Cn2ccnc2)cc1)c1cccc(C(F)(F)F)c1 | inactive |
| CC1=Nc2cc([N+](=O)[O-])ccc2NC(C)(C)C1 | inconclusive: 29.1 µM [activator, single point] |
| Cn1c(SCc2c(F)cccc2Cl)nnc1-c1cccs1 | inconclusive: 9.2 µM [activator, partial curve] |
| C=C1CCc2c([nH]c3ccc(OCC(C)C)cc23)C1=O | inconclusive: 23.1 µM [inhibitor, single point] |
| CCOC(=O)N1CCN(C(=O)c2ccc3c(c2)N(Cc2ccc(C)cc2)CCS3)CC1 | inconclusive: 11.6 µM [inhibitor, partial curve, poor fit] |
| CCCCC(=O)NNC(=S)NC(=O)c1ccc(C)cc1 | inactive |
| Cc1cccc(C)c1NC(=O)CCCSc1nnc(-c2ccco2)o1 | inconclusive: 25.9 µM [inhibitor, partial curve, poor fit] |
| Cc1ccc(S(=O)(=O)CCc2nnc(NC(=O)CCl)s2)cc1C | inconclusive: 16.4 µM [inhibitor, single point] |
| O=C1CCC(c2ccc3c(c2)CCC3)=NN1 | inconclusive: 20.6 µM [activator, single point] |
| CCc1nc(N2CCCC(C)C2)c2oc3ccccc3c2n1 (stereo unspecified) | inconclusive: 18.4 µM [inhibitor, single point] |
| Clc1ccc(/C=N/NC2=Nc3cccc4cccc2c34)cc1 | inconclusive: 6.51 µM [activator, partial curve] |
| CC1=CC(c2ccccc2)=Nc2ccc(C)cc2N1 | inconclusive: 4.61 µM [activator, full curve] |
| CC(C)Cn1c(N)c(C(=O)COC(=O)c2ccccc2Cl)c(=O)n(C)c1=O | inconclusive: 20.6 µM [inhibitor, single point] |
| CCOC(=O)N1CCN(C(=O)c2cc3c(=O)[nH]c4ccccc4c3s2)CC1 | inconclusive: 25.9 µM [inhibitor, partial curve] |
| Nc1nc(SCc2ccccc2Cl)n[nH]1 | inconclusive: 14.6 µM [activator, single point] |
| Cc1ccc(S(=O)(=O)N2CCSC2c2ccco2)cc1 (stereo unspecified) | inactive |
| Nc1ncc([N+](=O)[O-])c(N2CCCCCC2)n1 | active: 2.31 µM |
| Fc1ccc2cc(-c3ccccc3F)ncc2c1 | inconclusive: 11.6 µM [activator, partial curve] |
